Binding data for one molecule are collected here from PMC4423933.

This test has as its target GST-Rim (Rab3-interacting molecule) (amino acids 1-399) fusion protein. Kind of test: pull-down; GST fusion of an effector domain as bait; isolated acini of wild-type or ashen mice at basal level; pulldown fractions analysed by western blot; only the target purified.

Results are given in words; binding and its absence hold for the method and conditions named. Binding seen in cells or lysates may run through a third protein. A result given as binding can be weak or reduced; the word gives no strength.

B1: Rab3D (protein, UniProt P35276 1-219)
chain: MASASEPPASPRDAADQNFDYMFKLLLIGNSSVGKTSFLFRYADDSFTPAFVSTVGIDFKVKTVYRHDKRIKLQIWDTAGQERYRTITTAYYRGAMGFLLMYDIANQESFTAVQDWATQIKTYSWDNAQVILVGNKCDLEDERVVPAEDGRRLADDLGFEFFEASAKENINVKQVFERLVDIICDKMNESLEPSSSPGSNGKGPALGDTPPPQPSSCSC
As for B1, the binding result is “binds”.
